PubChem BioAssay AID1259254 | NCATS | 2017
The deposit covers about 59,000 reagents; this is an unselected part. About 1,550 of them (2.6%) count as active. 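G2 share is only a proxy for re-replication; each gene was hit by three separate siRNAs, and active genes were retested.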 Entries without a mark were called inactive. The numbers tell different reagents against one gene apart. Further read-outs or replicates are left out here. No sequences are given here. Not stated in the record: the amount of reagent.

Aim: 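Finding genes that stop cells copying their DNA twice in one cycle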 (primary screen)
System: human HCT116 colorectal cancer cells
Reagents: single siRNA against human genes
Duration: 3 days
Detection: 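Nuclei stained with Hoechst and imaged; cell-cycle phase assigned by DNA content; G2 share scaled per plate, non-targeting siRNA 0%, GMNN siRNA 100%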
Direction: G2 robust z-score: higher = more G2 cells, more excess DNA replication
Call rule: 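Active siRNAs have a G2 robust z of 5 or more median absolute deviations over the median, which in these data means about 38% or higher of GMNN control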

ACSS1 #1 gave G2 robust z-score 1.68.
For ACSS1 #2, the entry reads G2 robust z-score 2.31.
ACSS1 #3 scored G2 robust z-score -0.174.
RCOR3 #1 showed G2 robust z-score 0.644.
Against RCOR3 #2 the deposit lists G2 robust z-score 1.25.
After knock-down of RCOR3 #3, the screen gave G2 robust z-score -0.823.
Against IRF8 #1, the values are G2 robust z-score 0.0899.
After knock-down of IRF8 #2 the results were G2 robust z-score -0.0794.
Silencing of IRF8 #3 came out at: G2 robust z-score 1.97.
After knock-down of PIEZO2 #1, the record shows G2 robust z-score -0.141.
After knock-down of PIEZO2 #2 the results were G2 robust z-score 0.199.
After knock-down of PIEZO2 #3, the record shows G2 robust z-score -0.0543.
Against PIEZO2 #4, the values are G2 robust z-score -1.15.
PIEZO2 #5 scored G2 robust z-score -0.502.
Silencing of PIEZO2 #6 resulted in: G2 robust z-score 3.02.
Knock-down of CNTN3 #1 gave: G2 robust z-score 0.706.
After knock-down of CNTN3 #2, the screen gave G2 robust z-score -1.01.
CNTN3 #3 showed G2 robust z-score 0.0827.
With knock-down of SYT17 #1 the results were G2 robust z-score -0.658.
Against SYT17 #2 the deposit lists G2 robust z-score -0.417.
For SYT17 #3, the values are G2 robust z-score -0.196.
ECSIT #1 scored G2 robust z-score 1.42.
Knock-down of ECSIT #2 gave: G2 robust z-score -1.
For ECSIT #3, the entry reads G2 robust z-score 0.193.
Against KLK2 #1, the values are G2 robust z-score -1.49.
KLK2 #2 gave G2 robust z-score 4.03.
Depletion of KLK2 #3 gave: G2 robust z-score 1.79.
Against ENTPD2 #1, the entry reads G2 robust z-score 0.0831.
After knock-down of ENTPD2 #2 the results were G2 robust z-score 2.15.
After knock-down of ENTPD2 #3, the screen gave G2 robust z-score 3.89.

3 neighbouring entries already listed, for reference:
KLK2 #2 — G2 robust z-score: 4.03
KLK2 #3 — G2 robust z-score: 1.79
ENTPD2 #1 — G2 robust z-score: 0.0831
